Laboratory results: PubChem BioAssay AID686938 (Drosophila RNAi Screening Center, 2013)
The deposit covers about 23,000 reagents; this is a random part of those with a known target gene and a result. In the full data, 75 (0.33%) were called active. 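Raw plate signals without normalisation; calls rest on plate z-scores that were not deposited; ratio present for only 364 wells.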 A number with no mark means an inactive call. Reagents against one gene are numbered here. A plus sign joins genes that one reagent is predicted to hit. Not given: the dose of the treatment.

Test: 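Knock-downs reducing store-operated calcium influx in Drosophila cells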 (primary screen)
Cell system: Drosophila S2R+ cells
Reagent: long dsRNA against Drosophila genes, about 0.25 µg dsRNA per well, roughly 10,000 cells
Time to read-out: 5 days of knock-down before the calcium assay
Treatment: thapsigargin (SERCA pump blocker) to empty calcium stores; entry signal taken 4 min after adding it
Read-out: 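Duplicate raw fluo-4 intensities per well from a plate reader, at rest and four minutes after thapsigargin emptied calcium stores; entry-to-rest ratio filled for only some wells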
Reading the numbers: calcium entry signal: higher = stronger calcium signal after store depletion; resting calcium signal: higher = higher resting calcium signal
Active means: 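Hit if the duplicate-averaged plate z-score for entry over resting signal is under −3; wells with weak total dye signal (Fmax z < −2) or more than 5 off-targets removed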
Calls: active = strongly reduced calcium entry; inactive = no strong reduction

With knock-down of mdu (GeneID 32201) #1, the record shows calcium entry signal, replicate 1 (fluorescence units) = 4.68e7; calcium entry signal, replicate 2 (fluorescence units) = 3.26e7; resting calcium signal, replicate 1 (fluorescence units) = 2.78e7; resting calcium signal, replicate 2 (fluorescence units) = 2.12e7.
Depletion of mdu (GeneID 32201) #2 resulted in: calcium entry signal, replicate 1 (fluorescence units) = 4.19e7; calcium entry signal, replicate 2 (fluorescence units) = 4.49e7; resting calcium signal, replicate 1 (fluorescence units) = 1.86e7; resting calcium signal, replicate 2 (fluorescence units) = 1.79e7.
Osi12 (GeneID 40766) gave calcium entry signal, replicate 1 (fluorescence units) = 3.83e7; calcium entry signal, replicate 2 (fluorescence units) = 2.77e7; resting calcium signal, replicate 1 (fluorescence units) = 1.72e7; resting calcium signal, replicate 2 (fluorescence units) = 1.28e7.
Silencing of DIP-eta (GeneID 33793) gave: calcium entry signal, replicate 1 (fluorescence units) = 2.62e7; calcium entry signal, replicate 2 (fluorescence units) = 2.59e7; resting calcium signal, replicate 1 (fluorescence units) = 1.36e7; resting calcium signal, replicate 2 (fluorescence units) = 1.41e7.
Cul4 (GeneID 35780) showed calcium entry signal, replicate 1 (fluorescence units) = 2.54e7; calcium entry signal, replicate 2 (fluorescence units) = 3.28e7; resting calcium signal, replicate 1 (fluorescence units) = 1.61e7; resting calcium signal, replicate 2 (fluorescence units) = 1.68e7.
For CG11247 (GeneID 40414) #1 the deposit lists calcium entry signal, replicate 1 (fluorescence units) = 3.09e7; calcium entry signal, replicate 2 (fluorescence units) = 5.58e7; resting calcium signal, replicate 1 (fluorescence units) = 1.46e7; resting calcium signal, replicate 2 (fluorescence units) = 2.63e7.
For CG11247 (GeneID 40414) #2, the values are calcium entry signal, replicate 1 (fluorescence units) = 2.85e7; calcium entry signal, replicate 2 (fluorescence units) = 4.41e7; resting calcium signal, replicate 1 (fluorescence units) = 1.44e7; resting calcium signal, replicate 2 (fluorescence units) = 2.14e7.
For CG43089 (GeneID 12798588), the entry reads calcium entry signal, replicate 1 (fluorescence units) = 3.17e7; calcium entry signal, replicate 2 (fluorescence units) = 4.46e7; resting calcium signal, replicate 1 (fluorescence units) = 1.75e7; resting calcium signal, replicate 2 (fluorescence units) = 2.09e7.
After knock-down of Tsp66E (GeneID 39017), the record shows calcium entry signal, replicate 1 (fluorescence units) = 3.28e7; calcium entry signal, replicate 2 (fluorescence units) = 4.90e7; resting calcium signal, replicate 1 (fluorescence units) = 1.64e7; resting calcium signal, replicate 2 (fluorescence units) = 2.05e7.

Taken from above.
Tsp66E (GeneID 39017), resting calcium signal, replicate 2 (fluorescence units): 2.05e7
Under “calcium entry signal, replicate 1 (fluorescence units)”, CG11247 (GeneID 40414) #2 has 2.85e7
Under “calcium entry signal, replicate 2 (fluorescence units)”, mdu (GeneID 32201) #2 has 4.49e7

More records follow.
For Cyt-b5-r (GeneID 35008), the entry reads calcium entry signal, replicate 1 (fluorescence units) = 3.36e7; calcium entry signal, replicate 2 (fluorescence units) = 2.38e7; resting calcium signal, replicate 1 (fluorescence units) = 1.47e7; resting calcium signal, replicate 2 (fluorescence units) = 1.11e7.
Knock-down of Cad87A (GeneID 41441) came out at: calcium entry signal, replicate 1 (fluorescence units) = 2.72e7; calcium entry signal, replicate 2 (fluorescence units) = 2.92e7; resting calcium signal, replicate 1 (fluorescence units) = 1.29e7; resting calcium signal, replicate 2 (fluorescence units) = 1.33e7.
After knock-down of SLIRP1 + anox the results were calcium entry signal, replicate 1 (fluorescence units) = 3.17e7; calcium entry signal, replicate 2 (fluorescence units) = 2.98e7; resting calcium signal, replicate 1 (fluorescence units) = 1.45e7; resting calcium signal, replicate 2 (fluorescence units) = 1.48e7.
Knock-down of CG13344 (GeneID 36541) resulted in: calcium entry signal, replicate 1 (fluorescence units) = 2.96e7; calcium entry signal, replicate 2 (fluorescence units) = 3.28e7; resting calcium signal, replicate 1 (fluorescence units) = 1.38e7; resting calcium signal, replicate 2 (fluorescence units) = 1.61e7.
Depletion of Mtpbeta (GeneID 37784) came out at: calcium entry signal, replicate 1 (fluorescence units) = 2.41e7; resting calcium signal, replicate 1 (fluorescence units) = 1.25e7.
Against neo (GeneID 43523) the deposit lists calcium entry signal, replicate 1 (fluorescence units) = 3.04e7; calcium entry signal, replicate 2 (fluorescence units) = 3.67e7; resting calcium signal, replicate 1 (fluorescence units) = 1.33e7; resting calcium signal, replicate 2 (fluorescence units) = 1.76e7.
After knock-down of CG14830 (GeneID 38800), the screen gave calcium entry signal, replicate 1 (fluorescence units) = 4.16e7; calcium entry signal, replicate 2 (fluorescence units) = 4.02e7; resting calcium signal, replicate 1 (fluorescence units) = 1.98e7; resting calcium signal, replicate 2 (fluorescence units) = 1.81e7.
With knock-down of CG14837 (GeneID 38849) the results were calcium entry signal, replicate 1 (fluorescence units) = 2.98e7; calcium entry signal, replicate 2 (fluorescence units) = 3.71e7; resting calcium signal, replicate 1 (fluorescence units) = 1.39e7; resting calcium signal, replicate 2 (fluorescence units) = 1.47e7.
Silencing of Or59a (GeneID 37711) gave: calcium entry signal, replicate 1 (fluorescence units) = 3.09e7; calcium entry signal, replicate 2 (fluorescence units) = 4.33e7; resting calcium signal, replicate 1 (fluorescence units) = 1.74e7; resting calcium signal, replicate 2 (fluorescence units) = 2.03e7.
After knock-down of CG14851 (GeneID 41763) #1, the screen gave calcium entry signal, replicate 1 (fluorescence units) = 2.73e7; calcium entry signal, replicate 2 (fluorescence units) = 3.59e7; resting calcium signal, replicate 1 (fluorescence units) = 1.25e7; resting calcium signal, replicate 2 (fluorescence units) = 4.84e7.
CG14851 (GeneID 41763) #2 gave calcium entry signal, replicate 1 (fluorescence units) = 2.68e7; calcium entry signal, replicate 2 (fluorescence units) = 4.08e7; resting calcium signal, replicate 1 (fluorescence units) = 1.53e7; resting calcium signal, replicate 2 (fluorescence units) = 1.77e7.
After knock-down of CG31787 (GeneID 318941), the screen gave calcium entry signal, replicate 1 (fluorescence units) = 2.47e7; calcium entry signal, replicate 2 (fluorescence units) = 2.75e7; resting calcium signal, replicate 1 (fluorescence units) = 1.40e7; resting calcium signal, replicate 2 (fluorescence units) = 1.57e7.
For CG10435 (GeneID 40948), the values are calcium entry signal, replicate 1 (fluorescence units) = 2.78e7; calcium entry signal, replicate 2 (fluorescence units) = 3.55e7; resting calcium signal, replicate 1 (fluorescence units) = 1.22e7; resting calcium signal, replicate 2 (fluorescence units) = 1.50e7.
After knock-down of CG8563 (GeneID 38826) the results were calcium entry signal, replicate 1 (fluorescence units) = 2.88e7; calcium entry signal, replicate 2 (fluorescence units) = 4.54e7; resting calcium signal, replicate 1 (fluorescence units) = 1.35e7; resting calcium signal, replicate 2 (fluorescence units) = 1.86e7.
After knock-down of CG15198 (GeneID 32065) the results were calcium entry signal, replicate 1 (fluorescence units) = 4.22e7; calcium entry signal, replicate 2 (fluorescence units) = 4.45e7; resting calcium signal, replicate 1 (fluorescence units) = 2.02e7; resting calcium signal, replicate 2 (fluorescence units) = 2.26e7.
After knock-down of CG9743 (GeneID 43593), the record shows calcium entry signal, replicate 1 (fluorescence units) = 2.83e7; calcium entry signal, replicate 2 (fluorescence units) = 2.92e7; resting calcium signal, replicate 1 (fluorescence units) = 1.42e7; resting calcium signal, replicate 2 (fluorescence units) = 1.37e7.
CG31562 (retired record) (GeneID 40753) #1 showed calcium entry signal, replicate 1 (fluorescence units) = 4.11e7; calcium entry signal, replicate 2 (fluorescence units) = 4.57e7; resting calcium signal, replicate 1 (fluorescence units) = 2.04e7; resting calcium signal, replicate 2 (fluorescence units) = 2.10e7.
With knock-down of CG31562 (retired record) (GeneID 40753) #2 the results were calcium entry signal, replicate 1 (fluorescence units) = 4.30e7; calcium entry signal, replicate 2 (fluorescence units) = 4.70e7; resting calcium signal, replicate 1 (fluorescence units) = 2.21e7; resting calcium signal, replicate 2 (fluorescence units) = 2.03e7.
